The list shows a part of the results.
Tests used:
Test in all cases: log2 fold change, soluble protein after heating vs DMSO (PISA); higher = thermal stabilisation; K562 cells, 10 uM, 30 min; active = over 0.2 and 3.5 SD of the protein, either way, in both replicates (recomputed)
[1] = compound: NC(=O)Nc1cc(-c2cccc(F)c2)sc1C(=O)N[C@H]1CCCNC1
Outline: (§1)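 Thermal stability values are relative to control samples and come from duplicates. They are expressed as log2 fold changes. For measurement, K562 cells (2×10^6 cells/mL) received 10 μM compound for 30 min, and aliquots were heated for 3 min over 48°C-58°C, pooled, and extracted at 4°C in PBS with 0.5% NP-40. Soluble protein, the supernatant after 21,000xg for 90 min, was quantified by TMTpro 16plex LC-MS/MS with equalised channel sums.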

Amino acid sequences for entries named in this document (tags omitted). A change or cut given only in a name is not applied to a line headed by its entry.
UniProt Q96FK6: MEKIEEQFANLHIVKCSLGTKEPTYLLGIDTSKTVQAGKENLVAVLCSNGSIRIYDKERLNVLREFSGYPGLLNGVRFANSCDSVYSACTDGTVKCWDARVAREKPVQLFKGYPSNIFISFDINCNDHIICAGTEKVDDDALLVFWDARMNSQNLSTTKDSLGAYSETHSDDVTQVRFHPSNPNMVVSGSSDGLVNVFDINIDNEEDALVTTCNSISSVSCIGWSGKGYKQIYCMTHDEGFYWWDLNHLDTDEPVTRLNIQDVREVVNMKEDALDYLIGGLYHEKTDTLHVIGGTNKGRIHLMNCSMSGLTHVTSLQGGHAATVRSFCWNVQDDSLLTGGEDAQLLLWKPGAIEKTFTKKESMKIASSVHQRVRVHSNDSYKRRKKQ
UniProt Q9NNW5: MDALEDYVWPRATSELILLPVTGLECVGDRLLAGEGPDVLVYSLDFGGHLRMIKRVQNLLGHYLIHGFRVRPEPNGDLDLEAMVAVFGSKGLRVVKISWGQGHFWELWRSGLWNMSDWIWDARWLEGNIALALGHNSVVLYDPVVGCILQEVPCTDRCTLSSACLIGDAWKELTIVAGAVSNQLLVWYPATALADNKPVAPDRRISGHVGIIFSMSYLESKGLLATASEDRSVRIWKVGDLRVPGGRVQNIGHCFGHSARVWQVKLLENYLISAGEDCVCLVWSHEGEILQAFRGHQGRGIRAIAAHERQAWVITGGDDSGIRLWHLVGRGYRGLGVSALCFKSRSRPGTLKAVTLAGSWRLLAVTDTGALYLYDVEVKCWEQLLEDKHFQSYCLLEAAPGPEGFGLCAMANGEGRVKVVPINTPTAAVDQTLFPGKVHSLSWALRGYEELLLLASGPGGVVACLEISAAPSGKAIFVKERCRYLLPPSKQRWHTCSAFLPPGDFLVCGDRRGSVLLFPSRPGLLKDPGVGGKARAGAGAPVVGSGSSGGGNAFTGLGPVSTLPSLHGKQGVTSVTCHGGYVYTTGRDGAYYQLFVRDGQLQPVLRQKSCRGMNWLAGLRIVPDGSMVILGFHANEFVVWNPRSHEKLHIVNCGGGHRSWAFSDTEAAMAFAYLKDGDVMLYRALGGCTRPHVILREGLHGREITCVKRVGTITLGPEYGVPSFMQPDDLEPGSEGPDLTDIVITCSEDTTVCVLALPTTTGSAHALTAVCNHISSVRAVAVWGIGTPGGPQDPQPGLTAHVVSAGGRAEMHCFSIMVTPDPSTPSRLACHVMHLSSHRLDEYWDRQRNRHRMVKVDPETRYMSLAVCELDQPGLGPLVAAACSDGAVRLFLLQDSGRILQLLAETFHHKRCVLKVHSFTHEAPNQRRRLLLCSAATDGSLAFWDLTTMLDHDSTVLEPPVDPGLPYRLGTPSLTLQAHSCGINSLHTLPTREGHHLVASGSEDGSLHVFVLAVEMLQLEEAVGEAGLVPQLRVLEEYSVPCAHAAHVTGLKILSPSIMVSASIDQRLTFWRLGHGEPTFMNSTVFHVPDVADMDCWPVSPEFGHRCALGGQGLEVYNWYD
UniProt Q709C8: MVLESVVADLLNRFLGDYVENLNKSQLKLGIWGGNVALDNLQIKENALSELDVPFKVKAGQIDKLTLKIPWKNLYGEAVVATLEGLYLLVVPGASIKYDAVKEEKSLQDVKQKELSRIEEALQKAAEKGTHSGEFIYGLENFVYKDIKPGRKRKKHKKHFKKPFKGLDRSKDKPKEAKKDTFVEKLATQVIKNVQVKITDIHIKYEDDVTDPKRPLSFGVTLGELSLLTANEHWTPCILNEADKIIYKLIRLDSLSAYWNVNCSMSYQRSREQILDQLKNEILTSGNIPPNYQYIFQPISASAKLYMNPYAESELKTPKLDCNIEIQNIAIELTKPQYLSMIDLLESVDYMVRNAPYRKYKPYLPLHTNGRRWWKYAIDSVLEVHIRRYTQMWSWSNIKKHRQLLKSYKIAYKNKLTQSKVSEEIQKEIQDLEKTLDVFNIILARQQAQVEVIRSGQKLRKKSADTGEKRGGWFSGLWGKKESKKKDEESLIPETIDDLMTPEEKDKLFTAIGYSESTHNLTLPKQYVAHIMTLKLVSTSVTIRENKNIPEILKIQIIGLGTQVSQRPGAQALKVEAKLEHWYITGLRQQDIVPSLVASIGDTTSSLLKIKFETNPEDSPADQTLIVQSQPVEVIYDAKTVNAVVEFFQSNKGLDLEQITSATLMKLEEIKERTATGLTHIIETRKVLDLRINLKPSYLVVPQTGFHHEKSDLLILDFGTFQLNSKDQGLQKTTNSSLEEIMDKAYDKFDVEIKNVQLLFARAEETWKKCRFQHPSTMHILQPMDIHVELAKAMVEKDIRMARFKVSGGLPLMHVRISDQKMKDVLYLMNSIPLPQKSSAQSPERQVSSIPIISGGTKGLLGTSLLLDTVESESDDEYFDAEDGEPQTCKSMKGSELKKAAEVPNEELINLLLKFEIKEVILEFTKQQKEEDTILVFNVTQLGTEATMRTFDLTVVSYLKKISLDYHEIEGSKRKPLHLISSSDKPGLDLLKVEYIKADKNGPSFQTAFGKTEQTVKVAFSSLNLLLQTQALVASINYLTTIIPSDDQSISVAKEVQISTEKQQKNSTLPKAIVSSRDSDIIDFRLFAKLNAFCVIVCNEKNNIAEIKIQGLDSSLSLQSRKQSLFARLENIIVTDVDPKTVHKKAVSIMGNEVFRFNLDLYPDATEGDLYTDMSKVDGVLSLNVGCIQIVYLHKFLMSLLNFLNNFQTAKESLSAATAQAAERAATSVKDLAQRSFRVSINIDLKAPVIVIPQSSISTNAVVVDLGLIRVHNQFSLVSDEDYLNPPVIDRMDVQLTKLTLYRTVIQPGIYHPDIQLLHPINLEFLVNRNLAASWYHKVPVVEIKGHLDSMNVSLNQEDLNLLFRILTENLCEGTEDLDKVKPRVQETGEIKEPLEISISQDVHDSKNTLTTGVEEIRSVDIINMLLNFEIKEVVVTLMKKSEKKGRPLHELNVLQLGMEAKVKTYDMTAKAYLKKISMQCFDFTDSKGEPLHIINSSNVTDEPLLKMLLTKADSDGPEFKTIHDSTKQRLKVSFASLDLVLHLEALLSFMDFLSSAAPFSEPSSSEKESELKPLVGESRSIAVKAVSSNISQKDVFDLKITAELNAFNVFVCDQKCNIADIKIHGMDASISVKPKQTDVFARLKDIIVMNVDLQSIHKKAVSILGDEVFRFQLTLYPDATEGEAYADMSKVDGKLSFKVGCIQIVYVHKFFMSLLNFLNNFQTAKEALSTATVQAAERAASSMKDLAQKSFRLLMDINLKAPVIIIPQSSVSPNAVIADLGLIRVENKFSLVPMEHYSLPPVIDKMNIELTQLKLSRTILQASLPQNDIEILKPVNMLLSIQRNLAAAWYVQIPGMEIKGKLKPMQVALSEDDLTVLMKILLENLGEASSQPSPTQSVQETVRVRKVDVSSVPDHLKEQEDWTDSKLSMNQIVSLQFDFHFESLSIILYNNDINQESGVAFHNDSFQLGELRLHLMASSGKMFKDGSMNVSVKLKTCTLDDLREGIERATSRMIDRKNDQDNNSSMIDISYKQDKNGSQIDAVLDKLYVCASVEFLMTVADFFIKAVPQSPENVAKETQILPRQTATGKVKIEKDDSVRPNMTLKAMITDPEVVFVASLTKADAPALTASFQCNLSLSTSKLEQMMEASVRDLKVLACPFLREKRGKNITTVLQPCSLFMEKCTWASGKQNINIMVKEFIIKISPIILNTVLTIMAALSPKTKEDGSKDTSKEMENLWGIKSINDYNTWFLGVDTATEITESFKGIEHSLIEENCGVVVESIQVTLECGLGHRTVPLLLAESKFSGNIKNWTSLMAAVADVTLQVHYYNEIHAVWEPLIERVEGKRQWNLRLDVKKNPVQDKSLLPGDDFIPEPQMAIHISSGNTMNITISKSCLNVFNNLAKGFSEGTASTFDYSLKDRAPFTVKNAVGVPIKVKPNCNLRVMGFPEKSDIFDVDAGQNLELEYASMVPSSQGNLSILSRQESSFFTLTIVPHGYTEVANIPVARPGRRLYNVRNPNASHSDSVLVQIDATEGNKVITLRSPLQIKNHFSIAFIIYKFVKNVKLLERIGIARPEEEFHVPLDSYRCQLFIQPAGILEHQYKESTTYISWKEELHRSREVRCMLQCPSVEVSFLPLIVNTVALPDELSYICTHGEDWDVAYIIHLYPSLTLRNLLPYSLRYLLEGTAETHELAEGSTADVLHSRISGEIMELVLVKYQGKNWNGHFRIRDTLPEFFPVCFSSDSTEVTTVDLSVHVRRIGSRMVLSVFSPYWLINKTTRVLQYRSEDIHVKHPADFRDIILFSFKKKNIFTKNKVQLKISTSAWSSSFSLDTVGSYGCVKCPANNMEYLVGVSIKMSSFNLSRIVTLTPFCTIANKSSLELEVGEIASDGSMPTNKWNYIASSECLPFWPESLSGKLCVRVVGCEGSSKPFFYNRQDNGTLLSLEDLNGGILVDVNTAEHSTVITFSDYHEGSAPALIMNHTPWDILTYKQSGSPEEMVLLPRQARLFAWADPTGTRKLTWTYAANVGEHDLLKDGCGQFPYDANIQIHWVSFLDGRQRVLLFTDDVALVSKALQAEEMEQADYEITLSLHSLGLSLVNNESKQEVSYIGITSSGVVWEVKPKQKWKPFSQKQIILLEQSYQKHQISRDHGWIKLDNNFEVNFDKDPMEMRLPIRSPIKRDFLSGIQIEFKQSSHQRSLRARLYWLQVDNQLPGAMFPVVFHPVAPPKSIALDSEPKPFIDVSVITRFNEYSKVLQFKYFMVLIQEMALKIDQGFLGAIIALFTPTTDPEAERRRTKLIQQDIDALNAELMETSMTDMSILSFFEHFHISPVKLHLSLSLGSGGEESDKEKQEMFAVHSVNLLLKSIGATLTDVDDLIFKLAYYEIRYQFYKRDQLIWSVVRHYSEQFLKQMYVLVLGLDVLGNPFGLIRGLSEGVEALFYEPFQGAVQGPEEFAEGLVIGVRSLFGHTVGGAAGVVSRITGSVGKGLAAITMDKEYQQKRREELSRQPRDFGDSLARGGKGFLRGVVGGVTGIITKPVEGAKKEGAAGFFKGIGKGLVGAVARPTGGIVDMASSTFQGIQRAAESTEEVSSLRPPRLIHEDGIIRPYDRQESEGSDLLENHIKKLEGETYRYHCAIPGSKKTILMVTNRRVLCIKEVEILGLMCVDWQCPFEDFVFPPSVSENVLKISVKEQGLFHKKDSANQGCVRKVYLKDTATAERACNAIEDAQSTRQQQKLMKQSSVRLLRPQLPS
UniProt Q86VN1: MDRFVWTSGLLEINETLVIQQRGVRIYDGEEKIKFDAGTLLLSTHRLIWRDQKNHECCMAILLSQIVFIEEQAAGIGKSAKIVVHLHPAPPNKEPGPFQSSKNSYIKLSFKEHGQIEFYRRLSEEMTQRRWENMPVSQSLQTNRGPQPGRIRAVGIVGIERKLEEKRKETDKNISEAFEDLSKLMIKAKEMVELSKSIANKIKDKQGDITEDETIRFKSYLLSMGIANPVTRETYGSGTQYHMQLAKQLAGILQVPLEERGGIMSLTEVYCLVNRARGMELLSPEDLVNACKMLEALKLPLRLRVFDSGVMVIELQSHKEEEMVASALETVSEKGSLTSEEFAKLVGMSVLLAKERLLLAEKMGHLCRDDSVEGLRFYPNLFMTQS
UniProt Q8TF74: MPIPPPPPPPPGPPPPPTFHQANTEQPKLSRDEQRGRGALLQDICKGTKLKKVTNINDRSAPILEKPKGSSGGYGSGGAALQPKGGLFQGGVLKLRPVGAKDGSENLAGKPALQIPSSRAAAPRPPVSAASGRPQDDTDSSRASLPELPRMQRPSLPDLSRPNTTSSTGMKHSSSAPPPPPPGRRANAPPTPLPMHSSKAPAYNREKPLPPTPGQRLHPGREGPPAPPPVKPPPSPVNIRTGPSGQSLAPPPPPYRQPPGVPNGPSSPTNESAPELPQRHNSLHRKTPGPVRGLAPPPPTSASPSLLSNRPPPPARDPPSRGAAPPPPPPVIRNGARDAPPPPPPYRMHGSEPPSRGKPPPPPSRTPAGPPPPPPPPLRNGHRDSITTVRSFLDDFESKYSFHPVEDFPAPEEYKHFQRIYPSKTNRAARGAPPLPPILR
UniProt Q96MX6, whole entry, looked up: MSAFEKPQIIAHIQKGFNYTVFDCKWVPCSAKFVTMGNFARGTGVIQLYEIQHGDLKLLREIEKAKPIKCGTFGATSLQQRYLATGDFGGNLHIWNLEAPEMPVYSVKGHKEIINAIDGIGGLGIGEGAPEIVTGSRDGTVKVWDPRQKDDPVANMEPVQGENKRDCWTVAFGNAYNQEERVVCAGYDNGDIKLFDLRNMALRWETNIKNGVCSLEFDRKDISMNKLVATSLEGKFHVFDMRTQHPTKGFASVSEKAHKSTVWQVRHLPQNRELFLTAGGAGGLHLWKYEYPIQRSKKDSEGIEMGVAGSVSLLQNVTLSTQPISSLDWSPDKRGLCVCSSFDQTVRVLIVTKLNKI

[2] = compound: NC(=O)c1cnc(N[C@@H]2CCCC[C@@H]2N)nc1Nc1cccc(-n2nccn2)c1
Outline: as §1

[3] = compound: NC1(c2ccc(-c3nc4ccn5c(=O)[nH]nc5c4cc3-c3ccccc3)cc2)CCC1
Outline: as §1

[4] = compound: NCC(=O)Nc1ccc(-n2nc(C(F)(F)F)cc2-c2ccc3c(ccc4ccccc43)c2)cc1
Outline: as §1

[5] = compound: Nc1ccccc1NC(=O)c1ccc(CNC(=O)OCc2cccnc2)cc1 [entinostat]
Outline: as §1

[6] = compound: O=C(CCCCCCC(=O)Nc1ccccc1)NO [vorinostat]
Outline: as §1

[7] = compound: O=C(CCCCCCNC(=O)c1cnc(N(c2ccccc2)c2ccccc2Cl)nc1)NO [citarinostat]
Outline: as §1

[8] = compound: O=C(O)c1ccc2c(c1)nc(Nc1cccc(Cl)c1)c1ccncc12 [silmitasertib]
Outline: as §1

[9] = compound: O=C1NC(=O)C(c2cnc3ccccn23)=C1c1cn2c3c(cc(F)cc13)CN(C(=O)N1CCCCC1)CC2
Outline: as §1

[10] = compound: c1cc(OCCN2CCCCC2)cc(-c2n[nH]c3ccc(-c4nnc[nH]4)cc23)c1
Outline: as §1

[11] = compound: c1cn2cc(-c3ccc4cn[nH]c4c3)nc(Nc3ccc(N4CCOCC4)cc3)c2n1 [entospletinib]
Outline: as §1

Measured: log2 fold change

WDR1 (UniProt O75083)
inactive: [1] -0.043 | [2] -0.043 | [3] -0.128 | [4] -0.048 | [5] 0.011 | [6] 0.006 | [7] 0.039 | [8] -0.027 | [9] -0.064 | [10] -0.029 | [11] -0.009

WDR3 (UniProt Q9UNX4)
inactive: [1] 0.097 | [2] 0.122 | [3] 0.147 | [4] 0.102 | [5] 0.012 | [6] 0.013 | [7] 0.002 | [8] 0.264 | [9] 0.157 | [10] -0.11 | [11] 0.044

VPS29 isoform 2 (UniProt Q9UBQ0)
inactive: [1] -0.016 | [2] 0 | [3] -0.05 | [4] -0.131 | [5] 0.021 | [6] -0.011 | [7] 0.026 | [8] -0.032 | [9] -0.042 | [10] -0.046 | [11] 0.006

Random excerpt: 2 entries already listed, in no set order.
WDR1 (UniProt O75083)
inactive: [1] -0.043 | [2] -0.043 | [3] -0.128 | [4] -0.048 | [5] 0.011 | [6] 0.006 | [7] 0.039 | [8] -0.027 | [9] -0.064 | [10] -0.029 | [11] -0.009

VPS29 isoform 2 (UniProt Q9UBQ0)
inactive: [1] -0.016 | [2] 0 | [3] -0.05 | [4] -0.131 | [5] 0.021 | [6] -0.011 | [7] 0.026 | [8] -0.032 | [9] -0.042 | [10] -0.046 | [11] 0.006

(next part)

VPS52 (UniProt Q8N1B4)
inactive: [1] 0.065 | [2] -0.005 | [3] -0.132 | [4] -0.039 | [5] 0.037 | [6] 0.086 | [7] 0.015 | [8] 0.08 | [9] 0.02 | [10] 0.016

WDR48 (UniProt Q8TAF3)
inactive: [1] -0.004 | [2] -0.017 | [3] 0.009 | [4] 0.01 | [5] -0.006 | [6] -0.024 | [7] 0.023 | [8] 0.01 | [9] -0.021 | [10] -0.036 | [11] 0

WDCP (UniProt Q9H6R7)
inactive: [1] 0.062 | [2] 0.049 | [3] -0.011 | [4] -0.025 | [5] 0.019 | [6] 0.037 | [7] 0.118 | [8] 0.172 | [9] -0.033 | [10] -0.035

WDR7 (UniProt Q9Y4E6)
inactive: [1] -0.227 | [2] -0.017 | [3] 0.104 | [4] -0.019 | [5] 0.008 | [6] 0.036 | [7] -0.125 | [8] 0.032 | [9] 0.119 | [10] -0.088

WDR89 (UniProt Q96FK6)
inactive: [1] 0.04 | [2] 0.032 | [3] -0.005 | [4] 0.032 | [5] 0.002 | [6] 0.024 | [7] -0.01 | [8] -0.033 | [9] -0.028 | [10] -0.094 | [11] -0.009

WDR20 isoform 7 (UniProt Q8TBZ3)
inactive: [1] -0.085 | [2] -0.136 | [3] 0.025 | [4] 0.046 | [5] 0.038 | [6] 0.036 | [7] -0.016 | [8] 0.151 | [9] 0.044 | [10] -0.117 | [11] 0.036

VPS37B (UniProt Q9H9H4)
inactive: [1] 0 | [2] 0.086 | [3] -0.098 | [4] 0.002 | [5] 0.085 | [6] -0.016 | [7] 0.046 | [8] -0.032 | [9] -0.091 | [10] -0.094 | [11] 0.032

WDR6 (UniProt Q9NNW5)
inactive: [1] 0.006 | [2] -0.049 | [3] -0.075 | [4] -0.066 | [5] 0.022 | [6] 0.04 | [7] -0.009 | [8] 0.02 | [9] 0.037 | [10] 0.032 | [11] 0.034

WDR82 (UniProt Q6UXN9)
inactive: [1] -0.005 | [2] 0.039 | [3] 0.12 | [4] 0.046 | [5] -0.043 | [6] -0.054 | [7] 0 | [8] 0.098 | [9] 0.099 | [10] -0.101 | [11] 0.052

VRK3 (UniProt Q8IV63)
inactive: [1] 0.047 | [2] 0.102 | [3] -0.067 | [4] -0.053 | [5] 0.056 | [6] 0.269 | [7] 0.029 | [8] -0.023 | [9] -0.145 | [10] -0.121 | [11] -0.041

WDR74 (UniProt Q6RFH5)
inactive: [1] 0.064 | [2] 0.102 | [3] 0.148 | [4] -0.027 | [5] -0.101 | [6] 0.045 | [7] -0.022 | [8] 0.025 | [9] 0.11 | [10] -0.048 | [11] 0.029

WDR12 (UniProt Q9GZL7)
inactive: [1] 0.019 | [2] -0.096 | [3] -0.044 | [4] -0.039 | [5] -0.012 | [6] 0.02 | [7] 0.044 | [8] 0.002 | [9] -0.069 | [10] -0.03 | [11] -0.018

VPS13C (UniProt Q709C8)
inactive: [1] -0.031 | [2] -0.077 | [3] -0.191 | [4] -0.056 | [5] -0.016 | [6] 0 | [7] 0.007 | [8] 0.012 | [9] -0.003 | [10] 0.001 | [11] 0.036

VPS36 (UniProt Q86VN1)
inactive: [1] -0.008 | [2] -0.018 | [3] -0.068 | [4] -0.056 | [5] -0.015 | [6] 0.008 | [7] 0.039 | [8] 0.004 | [9] 0.041 | [10] -0.054 | [11] -0.053

WASF2 (UniProt Q9Y6W5)
inactive: [1] -0.027 | [2] 0.028 | [3] -0.041 | [4] -0.029 | [5] -0.007 | [6] -0.014 | [7] 0.039 | [8] 0.006 | [9] 0.085 | [10] -0.024 | [11] -0.024

WDR77 (UniProt Q9BQA1)
inactive: [1] -0.033 | [2] -0.019 | [3] -0.041 | [4] -0.011 | [5] -0.016 | [6] 0.015 | [7] 0.034 | [8] -0.052 | [9] 0.001 | [10] 0.005 | [11] -0.005

WIPF2 (UniProt Q8TF74)
inactive: [1] -0.004 | [2] -0.043 | [3] 0.015 | [4] -0.003 | [5] -0.036 | [6] 0.03 | [7] 0.015 | [8] -0.035 | [9] -0.013 | [10] -0.022 | [11] 0.007

WIPI2 (UniProt Q9Y4P8)
inactive: [1] -0.016 | [2] -0.126 | [3] -0.081 | [4] -0.026 | [5] 0.026 | [6] -0.052 | [7] -0.014 | [8] 0.076 | [9] 0.006 | [10] -0.066 | [11] -0.073

WDR92 (UniProt Q96MX6)
inactive: [1] -0.052 | [2] -0.076 | [3] -0.028 | [4] -0.015 | [5] 0.011 | [6] 0.003 | [7] -0.002 | [8] -0.044 | [9] -0.03 | [10] -0.035 | [11] 0.015

VMP1 (UniProt Q96GC9)
inactive: [1] 0.106 | [2] -0.026 | [3] -0.004 | [4] 0.057 | [5] -0.019 | [6] -0.063 | [7] 0.031 | [8] 0.023 | [9] -0.019 | [10] -0.104 | [11] 0.027

VPS45 (UniProt Q9NRW7)
inactive: [1] -0.041 | [2] 0.029 | [3] -0.2 | [4] -0.101 | [5] -0.011 | [6] 0.036 | [7] 0.07 | [8] 0.008 | [9] 0.007 | [10] -0.085 | [11] 0.06

WDR45 (UniProt Q9Y484)
inactive: [1] -0.018 | [2] 0.016 | [3] -0.063 | [4] 0.015 | [5] -0.013 | [6] 0.03 | [7] 0.046 | [8] 0.048 | [9] -0.053 | [10] -0.054 | [11] -0.046

WIZ isoform 3 (UniProt O95785)
inactive: [1] -0.019 | [2] 0.077 | [3] -0.121 | [4] 0.051 | [5] -0.11 | [6] 0.163 | [7] 0.029 | [8] 0.069 | [9] 0.138 | [10] -0.16 | [11] 0.023

WIZ (UniProt O95785)
inactive: [1] 0.043 | [2] -0.043 | [3] 0.032 | [4] -0.012 | [5] 0.019 | [6] 0.085 | [7] 0.036 | [8] -0.045 | [9] 0.04 | [10] -0.071 | [11] -0.006

VKORC1L1, A0A3B3ISV4
inactive: [1] -0.008 | [2] -0.02 | [3] -0.051 | [4] -0.015 | [5] -0.031 | [6] -0.094 | [7] -0.067 | [8] 0.06 | [9] -0.062 | [10] -0.08 | [11] 0.121
